Data: US20150190369A1, “QUERCETIN-3-GLUCOSIDE AND USES THEREOF” (priority 2012, published 2015)
At least one structure is not confirmed: it was looked up by name or label, or the drawing left a doubt.

How the values were obtained:
Type in all cases: cell-based, human
Details in all cases: Huh7, 24 h, simvastatin 0.2 and 1 μM, absence of Q3G
PCSK9 [1] = assay: Semi-quantitative immunoblotting for cellular PCSK9 in Huh7 cells
Description: At passage, Huh7 cells were routinely seeded at sub-confluence (˜10^6 cells/10-cm dish) in Dulbecco's modified Eagle's medium (DMEM) containing 10% fetal bovine serum (FBS) or LPDS (for experiments) and 50 μg/ml gentamycin. They were incubated overnight at 37° C., in a humidified 5% CO2-95% air atmosphere. Cells were treated or not with Q3G at defined concentrations and for defined lengths of time. Media were collected and centrifuged at 200 g for 5 min to sediment suspended cells; supernatants were collected and supplemented with 0.33 volumes of a 3×-concentrated PIC. Cell monolayers were rinsed with ice-cold phosphate-buffered saline (PBS); they were overlaid with […] the RIPA lysis buffer (50 mM Tris-HCl, pH 8, 150 mM NaCl, 1% NP-40, 0.5% Na-deoxycholate and 0.1% SDS) supplemented with 1× PIC. After 20 min in an ice bath, the lysates were centrifuged at 14,000 g and 4° C. for 20 min, and supernatants were collected. Conditioned media and lysates were stored at −20° C. until analysis.
(§1) Cell lysates were fractionated by SDS-PAGE and electrophoretically transferred onto a polyvinylidene fluoride membrane. […] The signal was captured on X-ray film and immunoreactive bands analyzed by densitometry on a Syngene's ChemiGenius^2XE Bio Imaging System (Cambridge, Mass.) within the dynamic range of the instrument. […]

LDLR = assay: Semi-quantitative immunoblotting for LDLR protein in Huh7 cell lysates
Description: At passage, Huh7 cells were routinely seeded at sub-confluence (˜10^6 cells/10-cm dish) in Dulbecco's modified Eagle's medium (DMEM) containing 10% fetal bovine serum (FBS) or LPDS (for experiments) and 50 μg/ml gentamycin. They were incubated overnight at 37° C., in a humidified 5% CO2-95% air atmosphere. Cells were treated or not with Q3G at defined concentrations and for defined lengths of time. Media were collected and centrifuged at 200 g for 5 min to sediment suspended cells; supernatants were collected and supplemented with 0.33 volumes of a 3×-concentrated PIC. […]
as §1
Huh7 cells, hepatocyte derived cellular carcinoma cells, were incubated for 24 h in medium containing 10% lipoprotein-depleted serum (LPDS) and 0 to 10 μM Q3G. The level of LDLR mRNA was measured by quantitative real-time RT-PCR; that of the LDLR protein by semi-quantitative immunoblotting. […]

PCSK9 [2] = assay: ELISA for secreted PCSK9 in conditioned media of Huh7 cells

CCC(C)(C)C(=O)O[C@H]1C[C@@H](C)C=C2C=C[C@H](C)[C@H](CC[C@@H]3C[C@@H](O)CC(=O)O3)[C@H]21 [Simvastatin, simvastatin, reference compound]
increased: level of cellular PCSK9 (PCSK9 [1]) | level of cellular LDLR (LDLR) | level of secreted PCSK9 (PCSK9 [2])
